No constants are given. Whether binding was seen depends on the method and setting. In cells and extracts the contact can be indirect. Some entries that bind do so weakly or less than the wild type. Tags and fused reporters may be left off the sequences shown.
Molecular target: T1, TolA_H22A with C-terminal eight-histidine tag (Escherichia coli (strain K12)) (UniProt P19934)
T1 sequence: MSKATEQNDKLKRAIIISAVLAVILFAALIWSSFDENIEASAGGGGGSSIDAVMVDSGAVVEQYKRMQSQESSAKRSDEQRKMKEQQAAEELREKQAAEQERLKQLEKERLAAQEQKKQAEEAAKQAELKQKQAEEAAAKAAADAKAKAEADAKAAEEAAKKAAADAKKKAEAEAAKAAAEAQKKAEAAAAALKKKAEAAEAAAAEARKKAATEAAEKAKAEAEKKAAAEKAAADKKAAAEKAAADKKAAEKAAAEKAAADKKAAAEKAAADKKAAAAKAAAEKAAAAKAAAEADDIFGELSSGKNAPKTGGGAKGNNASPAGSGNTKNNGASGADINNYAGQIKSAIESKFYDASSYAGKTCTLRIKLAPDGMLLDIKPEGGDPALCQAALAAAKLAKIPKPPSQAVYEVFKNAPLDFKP
Experiment: pull-down; Ni-NTA agarose capture of TolA-His from 1% DDM-solubilised lysate of TolQRA knockout cells expressing pTRC99a-TolQ(Myc)R(Strep)A(His) variants; wash 30 mM imidazole, 0.02% LMNG, 0.004% CHS; western blot with anti-His, anti-Myc, anti-Strep

The chains behind the UniProt entries cited, without tags or fusion partners.
UniProt P0ABV6: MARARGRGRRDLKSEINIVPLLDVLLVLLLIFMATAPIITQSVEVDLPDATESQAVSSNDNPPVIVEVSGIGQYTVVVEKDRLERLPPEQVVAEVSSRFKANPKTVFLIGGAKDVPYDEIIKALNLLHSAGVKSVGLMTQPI

binding: binds
Substance: TolR with C-terminal strep-tag (from UniProt P0ABV6 1-142)

From publication PMC12583513, “Deciphering the molecular mechanism of the bacterial division motor TolQRA” (Cell Discovery, 2025)
